Measurements taken from the supplement of paper PMC10849652.
The other results are listed elsewhere or left out.

Amino acid sequences for entries named in this document (tags omitted). A change or cut given only in a name is not applied to a line headed by its entry.
UniProt Q92466: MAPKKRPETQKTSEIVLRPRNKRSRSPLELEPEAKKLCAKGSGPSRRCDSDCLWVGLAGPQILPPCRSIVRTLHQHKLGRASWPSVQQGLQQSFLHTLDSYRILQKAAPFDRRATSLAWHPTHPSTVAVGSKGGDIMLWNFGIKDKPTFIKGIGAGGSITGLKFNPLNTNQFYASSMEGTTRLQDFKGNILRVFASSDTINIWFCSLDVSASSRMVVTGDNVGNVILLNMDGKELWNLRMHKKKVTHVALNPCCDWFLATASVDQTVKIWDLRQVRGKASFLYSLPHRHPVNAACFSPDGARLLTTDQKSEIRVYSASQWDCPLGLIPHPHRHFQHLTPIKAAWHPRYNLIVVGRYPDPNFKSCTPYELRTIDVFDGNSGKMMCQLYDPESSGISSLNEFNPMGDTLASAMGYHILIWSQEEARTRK
UniProt Q8NHQ9: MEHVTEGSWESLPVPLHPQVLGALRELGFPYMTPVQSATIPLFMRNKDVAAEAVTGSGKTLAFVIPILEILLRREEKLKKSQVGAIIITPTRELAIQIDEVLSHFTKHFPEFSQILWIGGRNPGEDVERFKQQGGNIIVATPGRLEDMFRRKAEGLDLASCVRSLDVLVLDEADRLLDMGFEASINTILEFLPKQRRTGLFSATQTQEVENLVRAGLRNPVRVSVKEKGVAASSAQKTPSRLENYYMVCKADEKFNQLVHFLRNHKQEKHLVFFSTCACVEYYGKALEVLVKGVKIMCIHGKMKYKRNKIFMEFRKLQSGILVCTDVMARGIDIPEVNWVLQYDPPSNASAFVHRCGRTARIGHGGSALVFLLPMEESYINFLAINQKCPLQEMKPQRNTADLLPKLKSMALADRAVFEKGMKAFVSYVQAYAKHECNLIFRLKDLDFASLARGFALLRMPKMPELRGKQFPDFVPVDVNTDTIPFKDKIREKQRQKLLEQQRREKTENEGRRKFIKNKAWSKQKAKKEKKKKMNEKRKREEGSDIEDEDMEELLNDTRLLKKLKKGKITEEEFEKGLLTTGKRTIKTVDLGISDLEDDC
UniProt A8MPP1: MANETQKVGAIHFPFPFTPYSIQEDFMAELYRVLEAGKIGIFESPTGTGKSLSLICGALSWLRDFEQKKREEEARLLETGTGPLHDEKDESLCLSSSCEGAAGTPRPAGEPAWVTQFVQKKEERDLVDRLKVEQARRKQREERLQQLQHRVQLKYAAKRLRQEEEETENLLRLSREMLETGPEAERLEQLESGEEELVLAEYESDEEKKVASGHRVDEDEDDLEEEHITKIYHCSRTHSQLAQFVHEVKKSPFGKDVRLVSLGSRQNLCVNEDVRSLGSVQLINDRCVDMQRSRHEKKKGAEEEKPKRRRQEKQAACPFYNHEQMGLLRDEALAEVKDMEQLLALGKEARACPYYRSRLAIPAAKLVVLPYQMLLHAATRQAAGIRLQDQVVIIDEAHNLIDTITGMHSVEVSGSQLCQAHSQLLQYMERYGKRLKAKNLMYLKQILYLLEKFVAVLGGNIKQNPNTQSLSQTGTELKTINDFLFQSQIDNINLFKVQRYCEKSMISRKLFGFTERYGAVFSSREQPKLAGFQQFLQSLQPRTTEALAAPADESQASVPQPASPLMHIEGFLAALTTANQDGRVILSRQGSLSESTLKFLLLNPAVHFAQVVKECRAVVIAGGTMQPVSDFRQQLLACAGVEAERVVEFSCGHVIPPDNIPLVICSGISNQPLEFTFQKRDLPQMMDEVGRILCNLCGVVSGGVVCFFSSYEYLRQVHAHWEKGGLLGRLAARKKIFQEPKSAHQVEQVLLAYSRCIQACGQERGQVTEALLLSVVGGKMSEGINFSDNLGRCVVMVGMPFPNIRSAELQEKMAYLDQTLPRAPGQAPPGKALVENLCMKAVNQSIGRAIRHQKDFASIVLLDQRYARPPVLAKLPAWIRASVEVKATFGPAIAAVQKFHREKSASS
UniProt Q6ICB0: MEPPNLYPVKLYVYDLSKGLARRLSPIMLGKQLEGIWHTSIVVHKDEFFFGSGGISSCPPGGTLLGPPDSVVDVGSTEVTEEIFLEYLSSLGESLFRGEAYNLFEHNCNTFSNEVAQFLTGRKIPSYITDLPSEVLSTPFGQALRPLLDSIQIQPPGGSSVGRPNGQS
UniProt Q8IV53: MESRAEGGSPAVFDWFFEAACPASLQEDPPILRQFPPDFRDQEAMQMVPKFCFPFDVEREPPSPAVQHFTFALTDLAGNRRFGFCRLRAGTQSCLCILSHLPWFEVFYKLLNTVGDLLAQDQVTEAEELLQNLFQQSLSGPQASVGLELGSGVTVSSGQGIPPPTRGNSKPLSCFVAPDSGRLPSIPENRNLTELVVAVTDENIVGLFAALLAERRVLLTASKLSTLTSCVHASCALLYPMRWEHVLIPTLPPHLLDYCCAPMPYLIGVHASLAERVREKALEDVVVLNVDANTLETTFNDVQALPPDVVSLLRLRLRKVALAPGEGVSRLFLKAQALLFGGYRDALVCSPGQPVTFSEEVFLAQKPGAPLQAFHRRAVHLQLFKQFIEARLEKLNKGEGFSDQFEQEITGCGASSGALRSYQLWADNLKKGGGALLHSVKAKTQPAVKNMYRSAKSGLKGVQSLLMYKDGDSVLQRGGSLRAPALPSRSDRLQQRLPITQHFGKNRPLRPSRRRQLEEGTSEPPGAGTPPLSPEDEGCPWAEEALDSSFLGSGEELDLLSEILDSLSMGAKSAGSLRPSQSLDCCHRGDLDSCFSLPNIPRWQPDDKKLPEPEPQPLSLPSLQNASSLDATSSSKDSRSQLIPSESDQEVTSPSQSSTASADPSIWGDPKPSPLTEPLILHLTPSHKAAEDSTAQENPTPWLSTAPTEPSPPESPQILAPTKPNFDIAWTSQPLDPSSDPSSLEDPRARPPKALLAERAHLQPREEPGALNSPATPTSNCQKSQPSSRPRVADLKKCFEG
UniProt Q9H5Z1: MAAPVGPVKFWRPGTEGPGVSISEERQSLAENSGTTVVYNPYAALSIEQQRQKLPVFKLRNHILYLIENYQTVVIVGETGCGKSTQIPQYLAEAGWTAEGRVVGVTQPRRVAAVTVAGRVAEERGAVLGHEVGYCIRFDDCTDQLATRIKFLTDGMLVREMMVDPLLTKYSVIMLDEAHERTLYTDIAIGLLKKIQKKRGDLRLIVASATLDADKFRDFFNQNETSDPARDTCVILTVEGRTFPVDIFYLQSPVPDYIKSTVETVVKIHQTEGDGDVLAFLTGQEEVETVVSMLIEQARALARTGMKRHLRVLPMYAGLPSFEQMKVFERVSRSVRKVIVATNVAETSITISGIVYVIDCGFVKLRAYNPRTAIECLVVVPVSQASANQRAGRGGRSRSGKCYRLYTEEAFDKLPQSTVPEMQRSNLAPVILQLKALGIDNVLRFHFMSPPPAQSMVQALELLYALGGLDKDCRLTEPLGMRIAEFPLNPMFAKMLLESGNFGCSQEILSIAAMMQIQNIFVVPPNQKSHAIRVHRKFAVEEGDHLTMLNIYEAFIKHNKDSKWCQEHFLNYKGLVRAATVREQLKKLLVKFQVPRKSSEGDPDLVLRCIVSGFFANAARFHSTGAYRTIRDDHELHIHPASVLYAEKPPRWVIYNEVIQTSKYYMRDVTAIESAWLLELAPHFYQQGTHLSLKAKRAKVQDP
UniProt Q96QB1: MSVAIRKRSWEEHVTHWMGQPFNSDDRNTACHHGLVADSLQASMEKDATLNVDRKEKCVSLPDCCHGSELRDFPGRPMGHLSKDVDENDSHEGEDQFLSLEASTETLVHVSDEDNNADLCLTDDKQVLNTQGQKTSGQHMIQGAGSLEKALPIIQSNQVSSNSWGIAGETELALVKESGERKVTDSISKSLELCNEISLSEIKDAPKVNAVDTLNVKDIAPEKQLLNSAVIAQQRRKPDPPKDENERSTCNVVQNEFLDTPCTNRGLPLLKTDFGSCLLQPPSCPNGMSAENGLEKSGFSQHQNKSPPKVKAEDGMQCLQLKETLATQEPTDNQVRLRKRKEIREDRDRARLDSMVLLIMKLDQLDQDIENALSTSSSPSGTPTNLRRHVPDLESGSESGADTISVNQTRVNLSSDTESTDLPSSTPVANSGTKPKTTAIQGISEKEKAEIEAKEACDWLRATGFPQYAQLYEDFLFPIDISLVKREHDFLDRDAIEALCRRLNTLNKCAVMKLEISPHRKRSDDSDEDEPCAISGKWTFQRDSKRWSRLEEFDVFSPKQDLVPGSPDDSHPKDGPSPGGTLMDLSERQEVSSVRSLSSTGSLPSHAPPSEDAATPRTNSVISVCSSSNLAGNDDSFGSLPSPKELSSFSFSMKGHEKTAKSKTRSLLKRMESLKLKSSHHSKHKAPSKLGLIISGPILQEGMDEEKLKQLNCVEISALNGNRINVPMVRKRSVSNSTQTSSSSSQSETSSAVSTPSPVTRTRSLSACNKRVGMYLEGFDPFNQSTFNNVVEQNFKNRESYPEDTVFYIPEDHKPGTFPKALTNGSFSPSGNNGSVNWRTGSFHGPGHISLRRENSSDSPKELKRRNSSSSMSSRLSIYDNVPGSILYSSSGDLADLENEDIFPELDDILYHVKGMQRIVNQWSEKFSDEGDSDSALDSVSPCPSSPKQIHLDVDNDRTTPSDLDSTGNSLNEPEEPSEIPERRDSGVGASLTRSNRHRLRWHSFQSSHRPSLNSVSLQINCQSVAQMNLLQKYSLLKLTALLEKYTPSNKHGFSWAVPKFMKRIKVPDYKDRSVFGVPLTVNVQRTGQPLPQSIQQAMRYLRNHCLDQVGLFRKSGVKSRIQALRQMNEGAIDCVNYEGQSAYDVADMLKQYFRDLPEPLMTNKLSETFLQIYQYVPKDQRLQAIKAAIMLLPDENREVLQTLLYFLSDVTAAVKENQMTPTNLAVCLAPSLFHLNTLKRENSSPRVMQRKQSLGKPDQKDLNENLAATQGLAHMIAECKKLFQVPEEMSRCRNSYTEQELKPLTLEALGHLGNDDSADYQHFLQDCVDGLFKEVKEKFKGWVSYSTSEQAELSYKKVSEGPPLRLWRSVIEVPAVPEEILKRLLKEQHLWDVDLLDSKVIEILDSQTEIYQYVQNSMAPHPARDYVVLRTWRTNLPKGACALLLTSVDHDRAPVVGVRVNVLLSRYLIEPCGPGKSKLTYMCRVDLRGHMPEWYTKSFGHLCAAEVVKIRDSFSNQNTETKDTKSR
UniProt Q9Y2R4: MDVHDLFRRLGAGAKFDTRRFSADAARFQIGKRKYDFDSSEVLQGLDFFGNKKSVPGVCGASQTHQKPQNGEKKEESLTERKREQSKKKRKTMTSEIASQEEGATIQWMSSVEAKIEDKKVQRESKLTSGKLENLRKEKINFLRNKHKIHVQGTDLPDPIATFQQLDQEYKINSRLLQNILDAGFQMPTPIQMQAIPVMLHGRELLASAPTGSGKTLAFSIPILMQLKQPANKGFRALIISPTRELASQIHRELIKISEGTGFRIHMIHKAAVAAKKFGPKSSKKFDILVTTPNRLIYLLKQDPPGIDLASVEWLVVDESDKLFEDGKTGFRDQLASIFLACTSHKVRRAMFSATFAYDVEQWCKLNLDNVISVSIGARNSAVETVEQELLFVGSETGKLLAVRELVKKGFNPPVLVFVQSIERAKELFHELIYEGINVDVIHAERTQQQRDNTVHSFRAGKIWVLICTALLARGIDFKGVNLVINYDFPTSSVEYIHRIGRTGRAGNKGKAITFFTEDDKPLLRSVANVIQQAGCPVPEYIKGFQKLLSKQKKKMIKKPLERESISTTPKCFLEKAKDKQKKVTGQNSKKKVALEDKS
UniProt Q68CQ4: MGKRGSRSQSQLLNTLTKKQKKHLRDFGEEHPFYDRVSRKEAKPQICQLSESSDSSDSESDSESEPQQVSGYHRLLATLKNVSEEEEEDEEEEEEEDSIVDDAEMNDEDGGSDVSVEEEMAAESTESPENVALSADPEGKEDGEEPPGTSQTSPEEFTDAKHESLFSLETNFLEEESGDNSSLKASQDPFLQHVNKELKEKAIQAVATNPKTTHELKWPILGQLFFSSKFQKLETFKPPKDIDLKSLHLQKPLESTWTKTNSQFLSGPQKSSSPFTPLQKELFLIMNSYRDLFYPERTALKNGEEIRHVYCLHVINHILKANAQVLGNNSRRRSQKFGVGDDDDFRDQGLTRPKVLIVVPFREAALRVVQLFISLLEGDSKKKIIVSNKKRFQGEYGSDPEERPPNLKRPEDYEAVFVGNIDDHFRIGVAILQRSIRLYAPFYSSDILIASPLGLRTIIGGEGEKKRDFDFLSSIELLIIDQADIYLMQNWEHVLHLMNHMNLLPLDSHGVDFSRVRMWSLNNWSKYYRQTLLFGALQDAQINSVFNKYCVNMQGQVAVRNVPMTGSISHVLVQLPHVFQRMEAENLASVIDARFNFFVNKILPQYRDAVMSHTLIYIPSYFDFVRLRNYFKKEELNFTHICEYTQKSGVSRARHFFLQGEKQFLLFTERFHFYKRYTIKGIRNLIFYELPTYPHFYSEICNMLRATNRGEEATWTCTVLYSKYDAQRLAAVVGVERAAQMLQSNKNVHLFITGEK

Tests used:
Experiment in all cases: log2 fold change, soluble protein after heating vs DMSO (PISA); higher = thermal stabilisation; K562 cells, 10 uM, 30 min; active = over 0.2 and 3.5 SD of the protein, either way, in both replicates (recomputed)
[1] = compound: COC1=CC=C(C=C1)CN2C=CC3=C2C=C(C=C3)C(=O)NO
Summary of the method: (§1)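 For each measurement, 10 μM compound was applied for 30 min to K562 cells at 2×10^6 cells/mL. Aliquots were heated for 3 min across 48°C-58°C, pooled, and extracted in PBS with 0.5% NP-40 at 4°C; the supernatant after 21,000xg for 90 min was soluble protein. This was quantified by TMTpro 16plex LC-MS/MS with channel sums equalised, and thermal stability was reported relative to control samples from duplicates, on a log2 fold-change scale.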

zotarolimus = compound: CO[C@H]1C[C@@H]2CC[C@@H](C)[C@@](O)(O2)C(=O)C(=O)N2CCCC[C@H]2C(=O)O[C@H]([C@H](C)C[C@@H]2CC[C@H](n3cnnn3)[C@H](OC)C2)CC(=O)[C@H](C)/C=C(\C)[C@@H](O)[C@@H](OC)C(=O)[C@H](C)C[C@H](C)/C=C/C=C/C=C/1C [zotarolimus]
Summary of the method: as §1

filanesib = compound: CON(C)C(=O)N1N=C(c2cc(F)ccc2F)S[C@@]1(CCCN)c1ccccc1 [filanesib]
Summary of the method: as §1

[2] = compound: COc1cc2nc(-c3cc(F)ccc3O)nc(N[C@@H]3CNC[C@H]3C(C)(C)O)c2cc1OC
Summary of the method: as §1

lapatinib = compound: CS(=O)(=O)CCNCc1ccc(-c2ccc3ncnc(Nc4ccc(OCc5cccc(F)c5)c(Cl)c4)c3c2)o1 [lapatinib]
Summary of the method: as §1

pictilisib = compound: CS(=O)(=O)N1CCN(Cc2cc3nc(-c4cccc5[nH]ncc45)nc(N4CCOCC4)c3s2)CC1 [pictilisib]
Summary of the method: as §1

idasanutlin = compound: COc1cc(C(=O)O)ccc1NC(=O)[C@@H]1N[C@@H](CC(C)(C)C)[C@](C#N)(c2ccc(Cl)cc2F)[C@H]1c1cccc(Cl)c1F [idasanutlin]
Summary of the method: as §1

alisertib = compound: COc1cc(Nc2ncc3c(n2)-c2ccc(Cl)cc2C(c2c(F)cccc2OC)=NC3)ccc1C(=O)O [alisertib]
Summary of the method: as §1

gefitinib = compound: COc1cc2ncnc(Nc3ccc(F)c(Cl)c3)c2cc1OCCCN1CCOCC1 [gefitinib]
Summary of the method: as §1

[3] = compound: COc1cccc2cc(-c3nc([C@H]4CC[C@H](C(=O)O)CC4)n4ncnc(N)c34)[nH]c12
Summary of the method: as §1

Measured: log2 fold change

DLK1 (UniProt P80370)
inactive: [1] -0.021 | zotarolimus -0.095

DDHD1 (UniProt Q8NEL9)
inactive: [1] 0.115 | filanesib -0.057 | [2] 0.225 | lapatinib -0.091 | pictilisib 0.103

DDB2 (UniProt Q92466)
inactive: filanesib -0.479 | zotarolimus -0.007 | idasanutlin 0.009 | alisertib -0.027 | [2] 0.002 | gefitinib -0.033 | [3] 0.063 | lapatinib 0.033 | pictilisib -0.034

DEF6 (UniProt Q9H4E7)
inactive: [1] 0.027 | zotarolimus -0.305 | alisertib -0.054 | [3] -0.103

DDX55 (UniProt Q8NHQ9)
inactive: filanesib 0.184

DHPS (UniProt M0R1T2)
inactive: filanesib -0.057

DDX11L8 (UniProt A8MPP1)
inactive: zotarolimus 0.136 | [2] 0.018 | lapatinib 0.03

DDX25 (UniProt Q9UHL0)
inactive: [1] 0.037 | zotarolimus 0.402 | idasanutlin -0.041 | alisertib -0.327 | [2] -0.12 | gefitinib -0.076 | [3] -0.266 | lapatinib 0.244

DICER1 (UniProt Q9UPY3)
inactive: filanesib 0.071 | zotarolimus -0.066 | idasanutlin 0.148 | alisertib 0.767 | [2] 0.03 | gefitinib 0.063 | [3] 0.049 | lapatinib -0.115 | pictilisib 0.04

DECR1 (UniProt E5RJD2)
inactive: alisertib -0.065 | [2] 0.113 | gefitinib 0.094 | [3] 0.193 | lapatinib -0.071 | pictilisib 0.123

DGKA (UniProt P23743)
inactive: filanesib -0.277 | alisertib 0.472 | [2] 0.1 | [3] 0.226 | lapatinib 0.119

DEGS1 (UniProt O15121)
inactive: filanesib -0.048 | zotarolimus 0.027 | idasanutlin 0.039 | alisertib 0.028 | [2] -0.013 | gefitinib -0.002 | [3] -0.018 | lapatinib -0.034 | pictilisib 0

Retrieved one by one from the list above (two):
DDB2 (UniProt Q92466)
inactive: filanesib -0.479 | zotarolimus -0.007 | idasanutlin 0.009 | alisertib -0.027 | [2] 0.002 | gefitinib -0.033 | [3] 0.063 | lapatinib 0.033 | pictilisib -0.034

DECR1 (UniProt E5RJD2)
inactive: alisertib -0.065 | [2] 0.113 | gefitinib 0.094 | [3] 0.193 | lapatinib -0.071 | pictilisib 0.123

(cont.)

DDB1 isoform 2 (UniProt Q16531)
inactive: filanesib 0.077 | pictilisib 0.094

DENND10 (UniProt Q8TCE6)
inactive: filanesib -0.133 | zotarolimus -0.017 | idasanutlin 0.003 | alisertib -0.065 | [2] 0.114 | gefitinib 0.1 | [3] -0.05 | lapatinib -0.021

DESI1 (UniProt Q6ICB0)
inactive: zotarolimus 0.166 | idasanutlin 0.213 | [2] 0.046 | lapatinib -0.002

DDX41 (UniProt Q9UJV9)
inactive: filanesib -0.007 | zotarolimus -0.016 | idasanutlin 0.025 | alisertib -0.012 | [2] -0.094 | gefitinib -0.026 | [3] 0.075 | lapatinib -0.141 | pictilisib 0.051

DDAH1 (UniProt O94760)
inactive: zotarolimus -0.024 | idasanutlin -0.093 | alisertib -0.007 | [2] -0.025 | gefitinib -0.045 | [3] 0.065 | lapatinib -0.01 | pictilisib -0.027

DDR1 isoform 5 (UniProt Q08345)
inactive: [1] -0.047 | zotarolimus 0.115 | pictilisib 0.24

DMKN (UniProt Q6E0U4)
inactive: alisertib 0.815 | [2] 0.133 | gefitinib 0.112 | [3] -0.196 | lapatinib 0.044

DMTF1 (UniProt Q9Y222)
inactive: filanesib -0.051 | zotarolimus -0.316 | idasanutlin -0.009 | [2] -0.125 | lapatinib 0.039 | pictilisib 0.197

DERPC (UniProt P0CG12)
inactive: [1] -0.016 | alisertib 0.021 | gefitinib 0.099 | [3] 0.086 | pictilisib -0.107

DHX37 (UniProt Q8IY37)
inactive: idasanutlin 0.017

DMXL2 isoform 3 (UniProt Q8TDJ6)
inactive: filanesib 0.045 | zotarolimus -0.178 | idasanutlin 0.011 | pictilisib 0.239

DFFA isoform 2 (UniProt O00273)
inactive: [1] 0.079 | alisertib -0.047 | gefitinib -0.082 | [3] 0.139

DENND1C (UniProt Q8IV53)
inactive: filanesib -0.088

DDX28 (UniProt Q9NUL7)
inactive: zotarolimus -0.104

DDX46, A0A0C4DG89
inactive: alisertib -0.083 | gefitinib 0.261 | [3] 0.032

DHX35 (UniProt Q9H5Z1)
inactive: gefitinib 0.012

DMBT1 isoform 6 (UniProt Q9UGM3)
inactive: filanesib -0.074 | alisertib 1.09 | gefitinib 0.862 | [3] -0.14

DLC1 (UniProt Q96QB1)
inactive: [1] -0.619 | alisertib -0.159 | gefitinib 0 | [3] 0.038 | pictilisib 0.259

DDX52 (UniProt Q9Y2R4)
inactive: [1] -0.127 | zotarolimus -0.035

DET1 isoform 2 (UniProt Q7L5Y6)
inactive: [1] -0.076 | zotarolimus 0.01 | alisertib 0.001 | [2] -0.165 | [3] -0.008 | lapatinib 0.044

DEF8 (UniProt Q6ZN54)
inactive: idasanutlin -0.04 | [2] -0.146 | lapatinib 0.174

DENND1A isoform 6 (UniProt Q8TEH3)
inactive: [1] 0.154 | [2] -0.18 | lapatinib 0.06

DIEXF (UniProt Q68CQ4)
inactive: zotarolimus 0.091
